Laboratory results published in patent US20140038203A1, “METHODS FOR DETECTING OR PREDICTING KIDNEY DISEASE” (MUSC FOUNDATION FOR RESEARCH DEVELOPMENT, priority 2012, published 2014).

Assay: RRT study: LC-MS/MS urinary proteomics, AKI after cardiac surgery, RRT vs No RRT
Parameters: species or system human
Conditions: patients who did vs did not require RRT/dialysis; for Up or Down: direction of urinary abundance; for Mean Fold Change: read with the Up or Down column

B1: Ig alpha-1 chain C region (protein, UniProt P01876 1-398, looked up)
Immunoglobulin heavy constant …: ASPTSPKVFPLSLCSTQPDGNVVIACLVQGFFPQEPLSVTWSESGQGVTARNFPPSQDASGDLYTTSSQLTLPATQCLAGKSVTCHVKHYTNPSQDVTVPCPVPSTPPTPSPSTPPTPSPSCCHPRLSLHRPALEDLLLGSEANLTCTLTGLRDASGVTFTWTPSSGKSAVQGPPERDLCGCYSVSSVLPGCAEPWNHGKTFTCTAAYPESKTPLTATLSKSGNTFRPEVHLLPPPSEELALNELVTLTCLARGFSPKDVLVRWLQGSQELPREKYLTWASRQEPSQGTTTFAVTSILRVAAEDWKKGDTFSCMVGHEALPLAFTQKTIDRLADWQMPPPYVVLDLPQETLEEETPGANLWPTTITFLTLFLLSLFYSTALTVTSVRGPSGNREGPQY
Up or Down: Up
Mean Fold Change: 1.839

B2: Vesicular integral-membrane protein VIP36 (protein, UniProt Q12907 45-356, looked up)
Vesicular integral-membrane …: DITDGNSEHLKREHSLIKPYQGVGSSSMPLWDFQGSTMLTSQYVRLTPDERSKEGSIWNHQPCFLKDWEMHVHFKVHGTGKKNLHGDGIALWYTRDRLVPGPVFGSKDNFHGLAIFLDTYPNDETTERVFPYISVMVNNGSLSYDHSKDGRWTELAGCTADFRNRDHDTFLAVRYSRGRLTVMTDLEDKNEWKNCIDITGVRLPTGYYFGASAGTGDLSDNHDIISMKLFQLMVEHTPDEESIDWTKIEPSVNFLKSPKDNVDDPTGNFRSGPLTGWRVFLLLLCALLGIVVCAVVGAVVFQKRQERNKRFY
Up or Down: Up
Mean Fold Change: 1.55

B3: Trypsin-2 (protein, UniProt P07478 24-247, looked up)
Trypsin-2: IVGGYICEENSVPYQVSLNSGYHFCGGSLISEQWVVSAGHCYKSRIQVRLGEHNIEVLEGNEQFINAAKIIRHPKYNSRTLDNDILLIKLSSPAVINSRVSAISLPTAPPAAGTESLISGWGNTLSSGADYPDELQCLDAPVLSQAECEASYPGKITNNMFCVGFLEGGKDSCQGDSGGPVVSNGELQGIVSWGYGCAQKNRPGVYTKVYNYVDWIKDTIAANS
Up or Down: Up
Mean Fold Change: 2.555

B4: Cystatin-C (protein, UniProt P01034 27-146, looked up)
Cystatin-C: SSPGKPPRLVGGPMDASVEEEGVRRALDFAVGEYNKASNDMYHSRALQVVRARKQIVAGVNYFLDVELGRTTCTKTQPNLDNCPFHDQPHLKRKAFCSFQIYAVPWQGTMTLSKSTCQDA
Up or Down: Up
Mean Fold Change: 4.004

B5: Ig gamma-2 chain C region (protein, UniProt P01859 1-395, looked up)
Immunoglobulin heavy constant …: ASTKGPSVFPLAPCSRSTSESTAALGCLVKDYFPEPVTVSWNSGALTSGVHTFPAVLQSSGLYSLSSVVTVPSSNFGTQTYTCNVDHKPSNTKVDKTVERKCCVECPPCPAPPVAGPSVFLFPPKPKDTLMISRTPEVTCVVVDVSHEDPEVQFNWYVDGVEVHNAKTKPREEQFNSTFRVVSVLTVVHQDWLNGKEYKCKVSNKGLPAPIEKTISKTKGQPREPQVYTLPPSREEMTKNQVSLTCLVKGFYPSDISVEWESNGQPENNYKTTPPMLDSDGSFFLYSKLTVDKSRWQQGNVFSCSVMHEALHNHYTQKSLSLSPELQLEESCAEAQDGELDGLWTTITIFITLFLLSVCYSATITFFKVKWIFSSVVDLKQTIVPDYRNMIRQGA
Up or Down: Up
Mean Fold Change: 3.662

B6: Uteroglobin (protein, UniProt P11684 22-91, looked up)
Uteroglobin: EICPSFQRVIETLLMDTPSSYEAAMELFSPDQDMREAGAQLKKLVDTLPQKPRESIIKLMEKIAQSSLCN
Up or Down: Up
Mean Fold Change: 4.711

B7: N(G),N(G)-dimethylarginine dimethylaminohydrolase 2 (protein, UniProt O95865 1-285, looked up)
Putative hydrolase DDAH2: MGTPGEGLGRCSHALIRGVPESLASGEGAGAGLPALDLAKAQREHGVLGGKLRQRLGLQLLELPPEESLPLGPLLGDTAVIQGDTALITRPWSPARRPEVDGVRKALQDLGLRIVEIGDENATLDGTDVLFTGREFFVGLSKWTNHRGAEIVADTFRDFAVSTVPVSGPSHLRGLCGMGGPRTVVAGSSDAAQKAVRAMAVLTDHPYASLTLPDDAAADCLFLRPGLPGVPPFLLHRGGGDLPNSQEALQKLSDVTLVPVSCSELEKAGAGLSSLCLVLSTRPHS
Up or Down: Up

B8: Alpha-1-antichymotrypsin (protein, UniProt P01011 24-423, looked up)
Alpha-1-antichymotrypsin: HPNSPLDEENLTQENQDRGTHVDLGLASANVDFAFSLYKQLVLKAPDKNVIFSPLSISTALAFLSLGAHNTTLTEILKGLKFNLTETSEAEIHQSFQHLLRTLNQSSDELQLSMGNAMFVKEQLSLLDRFTEDAKRLYGSEAFATDFQDSAAAKKLINDYVKNGTRGKITDLIKDLDSQTMMVLVNYIFFKAKWEMPFDPQDTHQSRFYLSKKKWVMVPMMSLHHLTIPYFRDEELSCTVVELKYTGNASALFILPDQDKMEEVEAMLLPETLKRWRDSLEFREIGELYLPKFSISRDYNLNDILLQLGIEEAFTSKADLSGITGARNLAVSQVVHKAVLDVFEEGTEASAATAVKITLLSALVETRTIVRFNRPFLMIIVPTDTQNIFFMSKVTNPKQA
Up or Down: Up
Mean Fold Change: 4.662

B9: DNA repair protein REV1 (protein, UniProt Q9UBZ9 1-1251, looked up)
DNA repair protein REV1: MRRGGWRKRAENDGWETWGGYMAAKVQKLEEQFRSDAAMQKDGTSSTIFSGVAIYVNGYTDPSAEELRKLMMLHGGQYHVYYSRSKTTHIIATNLPNAKIKELKGEKVIRPEWIVESIKAGRLLSYIPYQLYTKQSSVQKGLSFNPVCRPEDPLPGPSNIAKQLNNRVNHIVKKIETENEVKVNGMNSWNEEDENNDFSFVDLEQTSPGRKQNGIPHPRGSTAIFNGHTPSSNGALKTQDCLVPMVNSVASRLSPAFSQEEDKAEKSSTDFRDCTLQQLQQSTRNTDALRNPHRTNSFSLSPLHSNTKINGAHHSTVQGPSSTKSTSSVSTFSKAAPSVPSKPSDCNFISNFYSHSRLHHISMWKCELTEFVNTLQRQSNGIFPGREKLKKMKTGRSALVVTDTGDMSVLNSPRHQSCIMHVDMDCFFVSVGIRNRPDLKGKPVAVTSNRGTGRAPLRPGANPQLEWQYYQNKILKGKAADIPDSSLWENPDSAQANGIDSVLSRAEIASCSYEARQLGIKNGMFFGHAKQLCPNLQAVPYDFHAYKEVAQTLYETLASYTHNIEAVSCDEALVDITEILAETKLTPDEFANAVRMEIKDQTKCAASVGIGSNILLARMATRKAKPDGQYHLKPEEVDDFIRGQLVTNLPGVGHSMESKLASLGIKTCGDLQYMTMAKLQKEFGPKTGQMLYRFCRGLDDRPVRTEKERKSVSAEINYGIRFTQPKEAEAFLLSLSEEIQRRLEATGMKGKRLTLKIMVRKPGAPVETAKFGGHGICDNIARTVTLDQATDNAKIIGKAMLNMFHTMKLNISDMRGVGIHVNQLVPTNLNPSTCPSRPSVQSSHFPSGSYSVRDVFQVQKAKKSTEEEHKEVFRAAVDLEISSASRTCTFLPPFPAHLPTSPDTNKAESSGKWNGLHTPVSVQSRLNLSIEVPSPSQLDQSVLEALPPDLREQVEQVCAVQQAESHGDKKKEPVNGCNTGILPQPVGTVLLQIPEPQESNSDAGINLIALPAFSQVDPEVFAALPAELQRELKAAYDQRQRQGENSTHQQSASASVPKNPLLHLKAAVKEKKRNKKKKTIGSPKRIQSPLNNKLLNSPAKTLPGACGSPQKLIDGFLKHEGPPAEKPLEELSASTSGVPGLSSLQSDPAGCVRPPAPNLAGAVEFNDVKTLLREWITTISDPMEEDILQVVKYCTDLIEEKDLEKLDLVIKYMKRLMQQSVESVWNMAFDFILDNVQVVLQQTYGSTLKVT
Up or Down: Up

B10: N-acetylmuramoyl-L-alanine amidase (protein, UniProt Q96PD5 22-576, looked up)
N-acetylmuramoyl-L-alanine …: SLPLLMDSVIQALAELEQKVPAAKTRHTASAWLMSAPNSGPHNRLYHFLLGAWSLNATELDPCPLSPELLGLTKEVARHDVREGKEYGVVLAPDGSTVAVEPLLAGLEAGLQGRRVINLPLDSMAAPWETGDTFPDVVAIAPDVRATSSPGLRDGSPDVTTADIGANTPDATKGCPDVQASLPDAKAKSPPTMVDSLLAVTLAGNLGLTFLRGSQTQSHPDLGTEGCWDQLSAPRTFTLLDPKASLLTMAFLNGALDGVILGDYLSRTPEPRPSLSHLLSQYYGAGVARDPGFRSNFRRQNGAALTSASILAQQVWGTLVLLQRLEPVHLQLQCMSQEQLAQVAANATKEFTEAFLGCPAIHPRCRWGAAPYRGRPKLLQLPLGFLYVHHTYVPAPPCTDFTRCAANMRSMQRYHQDTQGWGDIGYSFVVGSDGYVYEGRGWHWVGAHTLGHNSRGFGVAIVGNYTAALPTEAALRTVRDTLPSCAVRAGLLRPDYALLGHRQLVRTDCPGDALFDLLRTWPHFTATVKPRPARSVSKRSRREPPPRTLPATDLQ
Up or Down: Up
Mean Fold Change: 4.875

B11: Abhydrolase domain-containing protein 14B (protein, UniProt Q96IU4 2-210, looked up)
Putative protein-lysine …: AASVEQREGTIQVQGQALFFREALPGSGQARFSVLLLHGIRFSSETWQNLGTLHRLAQAGYRAVAIDLPGLGHSKEAAAPAPIGELAPGSFLAAVVDALELGPPVVISPSLSGMYSLPFLTAPGSQLPGFVPVAPICTDKINAANYASVKTPALIVYGDQDPMGQTSFEHLKQLPNHRVLIMKGAGHPCYLDKPEEWHTGLLDFLQGLQ
Up or Down: Up
Mean Fold Change: 5.213

B12: Phosphatidylethanolamine-binding protein 4 (protein, UniProt Q96S96 23-227, looked up)
Phosphatidylethanolamine-bindi …: DEDENSPCAHEALLDEDTLFCQGLEVFYPELGNIGCKVVPDCNNYRQKITSWMEPIVKFPGAVDGATYILVMVDPDAPSRAEPRQRFWRHWLVTDIKGADLKKGKIQGQELSAYQAPSPPAHSGFHRYQFFVYLQEGKVISLLPKENKTRGSWKMDRFLNRFHLGEPEASTQFMTQNYQDSPTLQAPRERASEPKHKNQAEIAAC
Up or Down: Up

B13: Ig gamma-3 chain C region (protein, UniProt P01860 1-446, looked up)
Immunoglobulin heavy constant …: ASTKGPSVFPLAPCSRSTSGGTAALGCLVKDYFPEPVTVSWNSGALTSGVHTFPAVLQSSGLYSLSSVVTVPSSSLGTQTYTCNVNHKPSNTKVDKRVELKTPLGDTTHTCPRCPEPKSCDTPPPCPRCPEPKSCDTPPPCPRCPEPKSCDTPPPCPRCPAPELLGGPSVFLFPPKPKDTLMISRTPEVTCVVVDVSHEDPEVQFKWYVDGVEVHNAKTKPREEQYNSTFRVVSVLTVLHQDWLNGKEYKCKVSNKALPAPIEKTISKTKGQPREPQVYTLPPSREEMTKNQVSLTCLVKGFYPSDIAVEWESSGQPENNYNTTPPMLDSDGSFFLYSKLTVDKSRWQQGNIFSCSVMHEALHNRFTQKSLSLSPELQLEESCAEAQDGELDGLWTTITIFITLFLLSVCYSATVTFFKVKWIFSSVVDLKQTIIPDYRNMIGQGA
Up or Down: Up
Mean Fold Change: 3.683
